According to the supplement of paper PMC10382679:
Single values of this set are uncertain.

B1: Rpb7; numbered along this chain (parent)
chain: MFFIKDLSLNITLHPSFFGPRMKQYLKTKLLEEVEGSCTGKFGYILCVLDYDNIDIQRGRILPTDGSAEFNVKYRAVVFKPFKGEVVDGTVVSCSQHGFEVQVGPMKVFVTKHLMPQDLTFNAGSNPPSYQSSEDVITIKSRIRVKIEGCISQVSSIHAIGSIKEDYLGAI

Assays:
[1] = variants of: B1; experiment: log2 fold change of mutant abundance, UV-irradiated vs unirradiated; higher = more UV resistant (enriched after UV); details: with Saccharomyces cerevisiae rad7Δ rad26Δ; UV dose (J/m2): 10; genetic background: rad7Δ rad26Δ rpb7Δ + plasmid RPB7 library; outgrowth: 10 cell divisions
Description: (§1)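 Error-prone PCR random mutant library of yeast RPB7 (codons 2-171) on a LEU2 plasmid, shuffled into rad7Δ rad26Δ S. cerevisiae (BJ5465 background) with genomic RPB7 deleted. Cells were irradiated with 10 J/m2 UV (254 nm) or left unirradiated and grown for 10 divisions. Plasmid RPB7 amplicons were Illumina-sequenced and per-codon amino-acid counts were compared UV vs no UV with NOISeq (3 repeats, ARSyNseq batch correction). Positive log2FC means enrichment after UV, i.e. UV resistance / derepressed TCR.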

[2] = variants of: B1; experiment: NOISeq theta enrichment statistic, UV-irradiated vs unirradiated (dimensionless); higher = more UV resistant (enriched after UV); details: with Saccharomyces cerevisiae rad7Δ rad26Δ; UV dose (J/m2): 10; genetic background: rad7Δ rad26Δ rpb7Δ + plasmid RPB7 library; outgrowth: 10 cell divisions
Description: as §1

V103Q
log2 fold change of mutant abundance [1]: -0.176 | NOISeq theta enrichment statistic [2]: -0.128

V103C
log2 fold change of mutant abundance [1]: 0.426 | NOISeq theta enrichment statistic [2]: 0.328

V103W
log2 fold change of mutant abundance [1]: 0.261 | NOISeq theta enrichment statistic [2]: 0.128

V103R
log2 fold change of mutant abundance [1]: 0.00335 | NOISeq theta enrichment statistic [2]: 0.00472

N53C
log2 fold change of mutant abundance [1]: 1.66 | NOISeq theta enrichment statistic [2]: 0.748

I160H
log2 fold change of mutant abundance [1]: 0.381 | NOISeq theta enrichment statistic [2]: 0.173

I160M
log2 fold change of mutant abundance [1]: -0.123 | NOISeq theta enrichment statistic [2]: -0.139

I61N
log2 fold change of mutant abundance [1]: -0.339 | NOISeq theta enrichment statistic [2]: -0.258

I61Y
log2 fold change of mutant abundance [1]: 0.0641 | NOISeq theta enrichment statistic [2]: 0.0818

I61K
log2 fold change of mutant abundance [1]: -0.327 | NOISeq theta enrichment statistic [2]: -0.589

D6E
log2 fold change of mutant abundance [1]: 0.158 | NOISeq theta enrichment statistic [2]: 0.237

unchanged
log2 fold change of mutant abundance [1]: 0.0854 | NOISeq theta enrichment statistic [2]: 0.353

V108Y
log2 fold change of mutant abundance [1]: 0.215 | NOISeq theta enrichment statistic [2]: 0.112

Y167E
log2 fold change of mutant abundance [1]: 1.06 | NOISeq theta enrichment statistic [2]: 0.544

L26V
log2 fold change of mutant abundance [1]: -0.24 | NOISeq theta enrichment statistic [2]: -0.287

G19D
log2 fold change of mutant abundance [1]: 0.0542 | NOISeq theta enrichment statistic [2]: 0.111

G19R
log2 fold change of mutant abundance [1]: -0.185 | NOISeq theta enrichment statistic [2]: -0.191

L30P
log2 fold change of mutant abundance [1]: 0.034 | NOISeq theta enrichment statistic [2]: 0.0475

Q96A
log2 fold change of mutant abundance [1]: 0.0987 | NOISeq theta enrichment statistic [2]: 0.131

Q96G
log2 fold change of mutant abundance [1]: 0.0596 | NOISeq theta enrichment statistic [2]: 0.077

Q96V
log2 fold change of mutant abundance [1]: 0.0635 | NOISeq theta enrichment statistic [2]: 0.0677

E85R
log2 fold change of mutant abundance [1]: -0.101 | NOISeq theta enrichment statistic [2]: -0.0989

E85I
log2 fold change of mutant abundance [1]: 0.311 | NOISeq theta enrichment statistic [2]: 0.233

I45V
log2 fold change of mutant abundance [1]: -0.176 | NOISeq theta enrichment statistic [2]: -0.559

S16C
log2 fold change of mutant abundance [1]: 0.0785 | NOISeq theta enrichment statistic [2]: 0.076

R142N
log2 fold change of mutant abundance [1]: 0.304 | NOISeq theta enrichment statistic [2]: 0.16

R142I
log2 fold change of mutant abundance [1]: -0.00961 | NOISeq theta enrichment statistic [2]: -0.0192

R142M
log2 fold change of mutant abundance [1]: -0.624 | NOISeq theta enrichment statistic [2]: -0.426

K73Y
log2 fold change of mutant abundance [1]: -0.302 | NOISeq theta enrichment statistic [2]: -0.249

K73L
log2 fold change of mutant abundance [1]: 0.256 | NOISeq theta enrichment statistic [2]: 0.148

F42S
log2 fold change of mutant abundance [1]: 0.308 | NOISeq theta enrichment statistic [2]: 1.38

F42N
log2 fold change of mutant abundance [1]: -0.626 | NOISeq theta enrichment statistic [2]: -0.254

F42T
log2 fold change of mutant abundance [1]: -0.0109 | NOISeq theta enrichment statistic [2]: -0.00867

L46Q
log2 fold change of mutant abundance [1]: 0.656 | NOISeq theta enrichment statistic [2]: 0.368

H97V
log2 fold change of mutant abundance [1]: -0.116 | NOISeq theta enrichment statistic [2]: -0.125

F99T
log2 fold change of mutant abundance [1]: -0.0146 | NOISeq theta enrichment statistic [2]: -0.0159

F99Y
log2 fold change of mutant abundance [1]: -0.131 | NOISeq theta enrichment statistic [2]: -0.517

F99D
log2 fold change of mutant abundance [1]: 0.108 | NOISeq theta enrichment statistic [2]: 0.107

C38L
log2 fold change of mutant abundance [1]: -0.341 | NOISeq theta enrichment statistic [2]: -0.267

M115T
log2 fold change of mutant abundance [1]: -0.0628 | NOISeq theta enrichment statistic [2]: -0.149

M115N
log2 fold change of mutant abundance [1]: -0.405 | NOISeq theta enrichment statistic [2]: -0.295

M115K
log2 fold change of mutant abundance [1]: -0.118 | NOISeq theta enrichment statistic [2]: -0.378

M115A
log2 fold change of mutant abundance [1]: -0.548 | NOISeq theta enrichment statistic [2]: -0.351

M115E
log2 fold change of mutant abundance [1]: 0.0405 | NOISeq theta enrichment statistic [2]: 0.038

M115L
log2 fold change of mutant abundance [1]: 0.0175 | NOISeq theta enrichment statistic [2]: 0.0596

M115S
log2 fold change of mutant abundance [1]: 0.0205 | NOISeq theta enrichment statistic [2]: 0.0181

S8A
log2 fold change of mutant abundance [1]: 0.0858 | NOISeq theta enrichment statistic [2]: 0.0883

H14I
log2 fold change of mutant abundance [1]: -0.622 | NOISeq theta enrichment statistic [2]: -0.547

R58Q
log2 fold change of mutant abundance [1]: 0.026 | NOISeq theta enrichment statistic [2]: 0.0164

S132R
log2 fold change of mutant abundance [1]: -0.0139 | NOISeq theta enrichment statistic [2]: -0.0578

F18T
log2 fold change of mutant abundance [1]: -0.483 | NOISeq theta enrichment statistic [2]: -0.357

F18C
log2 fold change of mutant abundance [1]: -0.159 | NOISeq theta enrichment statistic [2]: -0.226

P63N
log2 fold change of mutant abundance [1]: 0.21 | NOISeq theta enrichment statistic [2]: 0.118

P63L
log2 fold change of mutant abundance [1]: -0.0945 | NOISeq theta enrichment statistic [2]: -0.373

I147F
log2 fold change of mutant abundance [1]: 0.0329 | NOISeq theta enrichment statistic [2]: 0.0747

I147V
log2 fold change of mutant abundance [1]: 0.0657 | NOISeq theta enrichment statistic [2]: 0.163

I147N
log2 fold change of mutant abundance [1]: -0.103 | NOISeq theta enrichment statistic [2]: -0.151

R144I
log2 fold change of mutant abundance [1]: 0.0855 | NOISeq theta enrichment statistic [2]: 0.139
